Here are results for 59 compounds from PubChem BioAssay AID2685 (National Center for Advancing Translational Sciences (NCATS), 2010).

The list shows a part of the results. The main result of the screen is listed elsewhere. These columns were measured beside it and carry no call. Compounds called inactive in the main read-out are mostly missing here. Words in brackets tell the shape of the fitted curve; partial curves, single points and poor fits give uncertain potencies.

The nature of the experiment: qHTS Assay for Lipid Storage Modulators in Drosophila S3 Cells.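 On cell number change: cells counted by Cell Tracker Red CMTPX staining in the red channel.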 The settings on record: BODIPY lipid droplet fluorescence, 18-24 h; for cell number change: measured here: cell count max response, cells fed with added oleic acid. The procedure, abridged:
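Drosophila S3 cells loaded with oleic acid (400 uM, as added) and compounds at several concentrations; lipid droplets imaged by 488-nm laser-scanning cytometry, 500–530 nm intensity and object ratio to cell channel. Percent activity normalized to 20 uM Triacsin C.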
In general terms: Quantitative high-throughput screening tests each substance at several concentrations.

Setting [1] is: measured here: lipid fluorescence (Fed channel) AC50, cells fed with added oleic acid.
Setting [2] is: measured here: cell number channel AC50, cells fed with added oleic acid.

As usually defined, the AC50 is the midpoint of the concentration-response curve, whichever way the signal moves. A low value points to activity at low concentration. For `COc1cc(-c2nc(-c3ccc4c(c3)-c3ccccc3S4(=O)=O)c(-c3ccccc3)[nH]2)cc(OC)c1OC`, the cell number change came to 10.3%. Moreover, under setting [1], the AC50 is 0.58 µM [rising, single point].

Regarding `COc1ccc(NC(=O)CSC2=NCCN2)cc1`, the cell number change turned out to be 4.44%.

Turning to `O=C(Nc1ccncc1)c1ccccc1-c1ccccc1`, the cell number change is -19.3%. Besides, under setting [1], the AC50 was 0.0731 µM [falling, full curve].

Take `COc1cc(C(=O)Nc2ccc(C(F)(F)F)cc2)ccc1OCC(=O)N1CCOCC1`: the cell number change came to 63.5%. Moreover, the AC50 under setting [2] was 18.4 µM [rising, partial curve].

As for `CCN(CC1COc2ccccc2O1)C(=O)CN1C(=O)NC(C)(c2ccc(C)cc2)C1=O` (stereo not drawn), the cell number change came to 3.07%. Also, the AC50 under setting [1] was 29.1 µM [falling, single point].

As for `Cc1nc(N)nc(C)c1Cc1ccccc1`, the cell number change was 1.84%. Moreover, the AC50 under setting [1] is 0.92 µM [falling, full curve, poor fit].

For the compound `COc1ccccc1NS(=O)(=O)/C=C/c1ccccc1`, the cell number change was 12.6%. For the same compound, the AC50 under setting [1] was 14.6 µM [rising, partial curve].

Regarding `O=C1NC(c2ccc(-c3ccccc3[N+](=O)[O-])o2)C(C(=O)c2ccccc2)C(O)(C(F)(F)F)N1` (stereo not drawn), the cell number change was -29.1%. Under setting [1], the AC50 was 29.1 µM [falling, single point].

Take `COc1cc(SC)ccc1C(=O)NCC1CCCO1` (stereo not drawn): the cell number change was 34.8%. Also, the AC50 under setting [2] is 1.64 µM [rising, partial curve]. For the same compound, the AC50 under setting [1] is 10.3 µM [falling, single point].

Turning to `O=C(NCc1ccco1)c1nc2ncccn2n1`, the cell number change turned out to be 6.09%. In addition, under setting [1], the AC50 was 6.51 µM [falling, single point].

For the compound `COc1ccc(NS(=O)(=O)c2cc(C(=O)N3CCC3)ccc2C)cc1`, the cell number change was 48.1%. Besides, the AC50 under setting [2] was 29.1 µM [rising, single point]. Under setting [1], the AC50 is 32.6 µM [rising, partial curve, poor fit].

Take `O=C(COC(=O)c1ccc2c(c1)OCCO2)Nc1cccc(S(=O)(=O)N2CCOCC2)c1`: the cell number change was found to be 59.1%. For the same compound, the AC50 under setting [2] is 16.4 µM [rising, single point]. The AC50 under setting [1] was 20.6 µM [rising, partial curve].

Regarding `COc1ccc(NC(=O)C2CCCN(S(=O)(=O)c3ccc(-n4cnnn4)cc3)C2)cc1` (stereo not drawn), the cell number change is -44.3%. Besides, the AC50 under setting [2] is 23.1 µM [falling, single point]. The concentration at half-maximal activity (AC50) under setting [1] is 29.1 µM [rising, single point].

For `C=CCN1C(=O)C2(NC(=O)c3ccccc3N2)c2ccccc21` (stereo not drawn), the cell number change is -44.1%. Moreover, the AC50 under setting [2] was 13 µM [falling, partial curve]. The AC50 under setting [1] was 18.4 µM [falling, single point].

As to `CC1CCc2[nH]c3ccc(C(=O)NCC4CCCO4)cc3c2C1` (stereo not drawn), under setting [1], the AC50 was 1.64 µM [falling, partial curve, poor fit].

`COc1cc(NS(=O)(=O)c2ccc(NS(=O)(=O)c3ccccc3)cc2)nc(OC)n1`: the cell number change is -30.1%. Also, under setting [2], the AC50 is 2.59 µM [falling, full curve]. Also, the AC50 under setting [1] was 0.146 µM [falling, full curve, poor fit].

As to `CC1(C)Cc2ccccc2C(/C(=N/O)C(N)=O)=N1`, the cell number change is 3.2%. Moreover, the AC50 under setting [1] was 0.00461 µM [falling, full curve, poor fit].

With `CNc1nc(SCC(=O)Nc2ccc(Cl)c(Cl)c2)nc(N2CCOCC2)n1`, the cell number change came to 81.7%. For the same compound, the AC50 under setting [2] was 20.6 µM [rising, partial curve].

As for `COC(C(=O)Nc1cccc([N+](=O)[O-])c1)c1ccccc1` (stereo not drawn), the cell number change was -2.37%.

With `CCC(C(=O)NCc1ccc(F)cc1)N(Cc1cccs1)C(=O)c1snc(C(N)=O)c1N` (stereo not drawn), the cell number change was -6.58%.

On to `O=C(NCc1cccc(C(F)(F)F)c1)C1CCN(c2ncccn2)CC1`, for which the cell number change stood at 4.61%.

`CCc1c(C)nc2ncnn2c1N1CCCC(C(=O)NCCc2ccccc2)C1` (stereo not drawn): the cell number change was -29%.

Consider `COc1ccc(/C=N/NC(=O)CCOc2ccccc2C)cc1OC`, for which the cell number change came to 15.1%. Moreover, the AC50 under setting [1] is 32.6 µM [rising, single point].

For the compound `O=C(CSc1nnc(COc2ccc(Br)cc2)o1)NC1CCCCC1`, the cell number change was 34.6%. Also, the AC50 under setting [2] is 1.64 µM [rising, partial curve].

`NC(=O)COC(=O)/C=C/c1ccccc1[N+](=O)[O-]`: the cell number change was -39.5%. Besides, the AC50 under setting [2] is 5.17 µM [falling, full curve]. In addition, the AC50 under setting [1] was 4.61 µM [falling, full curve, poor fit].

Turning to `CCSc1nc2c(c(=O)[nH]c(=O)n2C)n1C/C=C(/C)Cl`, the cell number change was found to be 12.1%. Besides, the AC50 under setting [1] is 0.731 µM [rising, full curve].

Take `C/C(=N\NC(=O)c1ccc(N)cc1)C1CC1`: the cell number change is 23.5%.

As for `Cc1c(NC(=O)COC(=O)/C=C/c2ccccc2Br)c(=O)n(-c2ccccc2)n1C`, the cell number change is -19.3%. Under setting [1], the AC50 was 0.00651 µM [rising, full curve, poor fit].

Regarding `Cc1noc(C)c1C(=O)OCC(=O)Nc1ccccc1Oc1ccccc1`, the cell number change was found to be 114%. Further, under setting [2], the AC50 was 14.6 µM [rising, partial curve]. Besides, under setting [1], the concentration at half-maximal activity (AC50) was 20.6 µM [rising, partial curve].

As for `CCOC(=O)c1sc2nc(-c3ccccc3)ccc2c1N`, the cell number change was -15.9%. For the same compound, the AC50 under setting [1] is 2.31 µM [rising, single point].

On to `CCS(=O)(=O)N1CCC(N2CCC(C)CC2)CC1`, for which the cell number change was -22.3%. In addition, the AC50 under setting [1] was 16.4 µM [falling, single point].

Regarding `CCC(C)N1C(=O)S/C(=C/c2ccc3c(c2)n(C)c(=O)n3C)C1=O` (stereo not drawn), the cell number change is -30.4%. Further, the AC50 under setting [2] was 29.1 µM [falling, single point].

With `Cn1nnnc1SCC(=O)N1CCN(c2ccccc2)CC1`, under setting [2], the AC50 was 0.00411 µM [falling, full curve, poor fit].

As for `Cn1ccc(NS(=O)(=O)c2cc(Br)ccc2Br)n1`, the cell number change was 52.3%. For the same compound, under setting [2], the AC50 is 32.6 µM [rising, partial curve, poor fit]. Moreover, the AC50 under setting [1] was 20.6 µM [rising, single point].

Take `Cc1ccc(S(=O)(=O)NC(C)(C)C)cc1C(=O)OC(C)C(=O)NC1CC1` (stereo not drawn): the cell number change worked out at 11.5%.

For `COc1cc2c(cc1OC)C(C)N(C(=O)c1ccc(Br)o1)CC2` (stereo not drawn), the cell number change turned out to be 10.7%. Further, the AC50 under setting [1] was 29.1 µM [rising, single point].

As to `O=C(NCc1cccs1)C1CCCCC1`, the cell number change was -88.6%. Further, the AC50 under setting [2] is 29.1 µM [falling, single point].

On to `O=C(NC1CCCC1)C(c1ccc(O)cc1)N(CC1CCCO1)C(=O)C1COc2ccccc2O1` (stereo not drawn), for which the cell number change came out at 88.5%. The AC50 under setting [2] was 18.4 µM [rising, single point]. Besides, the AC50 under setting [1] was 6.51 µM [rising, single point].

For the compound `COc1ccc(/C(=C/Nc2cccc(Br)c2)C(C)=O)cc1OC`, the cell number change amounted to 24.6%.

Turning to `COc1ccc(CCNc2oc(COc3ccc(F)cc3)nc2C#N)cc1`, the AC50 is 3.66 µM [rising, partial curve, poor fit] under setting [2] and 6.51 µM [rising, single point] under setting [1].

For `CCC(C)NC(=O)NC1C(NC(=O)NC(C)CC)N(C)C(=O)N1C` (stereo not drawn), the cell number change was determined as 1.56%. Also, the AC50 under setting [1] was 6.51 µM [falling, single point].

For the compound `Cc1ccc(NC(=S)N(CCCN2CCOCC2)Cc2ccco2)cc1`, the AC50 under setting [2] was 6.51 µM [falling, single point] and the AC50 under setting [1] is 29.1 µM [rising, single point].

Regarding `O=C(CN1C2=NCCN2c2ccccc21)c1ccc2c(c1)OCO2`, the cell number change is -1.47%. In addition, the AC50 under setting [1] was 10.3 µM [rising, single point].

For `Cc1cccc(C)c1NC(=O)C1c2ccccc2Oc2ccccc21`, the cell number change stood at 3.52%.

As to `CCOP(=O)(c1ccccc1)c1nc(-c2ccccc2Cl)oc1N1CCCCC1` (stereo not drawn), the cell number change was -49.8%. Moreover, under setting [2], the half-maximal activity concentration (AC50) is 23.1 µM [falling, single point]. For the same compound, the AC50 under setting [1] was 29.1 µM [falling, single point].

Turning to `Cc1ccc(C(=O)OCC(=O)Nc2sc3c(c2C#N)CCCCC3)cc1NC(=O)c1ccco1`, the cell number change was -13.8%. The AC50 under setting [2] was 6.51 µM [falling, partial curve].

On to `CC(=O)C1=C(C)OC(N)=C(C#N)C1c1cccc([N+](=O)[O-])c1` (stereo not drawn), for which the cell number change was -4.05%.

`COc1ccc(OC)c(NS(=O)(=O)c2cc3c4c(c2)CCN4C(=O)CC3)c1`: the cell number change was -98.2%. Also, the AC50 under setting [2] was 20.6 µM [falling, single point]. Besides, the AC50 under setting [1] was 0.206 µM [rising, full curve, poor fit].

With `CCCc1cc(=O)[nH]c(SCC(=O)Nc2ccc(Br)cc2Br)n1`, the cell number change stood at 46.1%. The AC50 under setting [2] was 18.4 µM [rising, single point]. Besides, the AC50 under setting [1] was 0.0731 µM [falling, full curve, poor fit].

`CCOc1ccc(NC(=O)CCc2nnc3ccc(N4CCC(C)CC4)nn23)cc1`: the cell number change came out at 3.05%. Moreover, the AC50 under setting [1] is 23.1 µM [falling, single point].

For `Cc1nn(-c2cc(C(F)(F)F)ccc2Cl)c2nc(C(Cl)(Cl)Cl)[nH]c(=O)c12`, the cell number change is -26.6%. In addition, under setting [2], the AC50 was 4.11 µM [falling, full curve, poor fit]. In addition, under setting [1], the AC50 was 4.61 µM [falling, full curve, poor fit].

For `Cc1ccnc(NS(=O)(=O)c2ccc(NC(=O)c3cc(-c4ccccc4)nc4ccccc34)cc2)n1`, the cell number change was 1.93%.

For the compound `COc1ccccc1-n1c(SCC(=O)Nc2ccc(Br)cc2)nc(O)cc1=O`, the cell number change is -39.6%. Also, under setting [2], the AC50 is 5.8 µM [falling, full curve].

In the case of `CCN(CC)C(=O)Cn1c(=O)n(CCCCCC(=O)Nc2ccccc2)c(=O)c2sccc21`, the cell number change was -14.3%. In addition, under setting [1], the AC50 was 0.164 µM [falling, full curve, poor fit].

For `COCCOC(=O)C1=C(C)Nc2nc(C)nn2C1c1ccc(F)cc1` (stereo not drawn), the cell number change came to 6.42%.

`Cc1cc(C)cc(N(CCC#N)C(=O)COC(=O)CNC(=O)c2sc3ccccc3c2Cl)c1`: the cell number change was 30%.

For `Cn1nc(C(F)(F)F)c(-c2ccc(Br)cc2)c1NC(=O)CSCC(=O)O`, the cell number change was -21.1%. Also, the AC50 under setting [2] was 0.00411 µM [falling, full curve, poor fit]. Further, the AC50 under setting [1] is 7.31 µM [rising, partial curve].

In the case of `CCCC1CCc2c(sc(NC(=O)c3cccs3)c2C(N)=O)C1` (stereo not drawn), the cell number change was -3.11%. Further, the AC50 under setting [1] is 0.058 µM [falling, full curve, poor fit].

Turning to `C=C(C)c1cccc(C(C)(C)NC(=O)Nc2ccc(C(C)=O)cc2)c1`, the cell number change was -53.6%. The AC50 under setting [1] is 8.2 µM [rising, single point].
